Source: the supplement of paper PMC6078165
The reference is the same well before dosing, and untreated signal decays as well.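 Fibroblast labels denote human fibroblasts, mainly primary ones from uterus (C12385, HUF), lung (H6013), bone (Hs27A), adrenal (HADF) and skin (WS1), plus mammary HMF and breast cancer-associated Hs343T. Cancer cells are basal-like or mesenchymal-like triple-negative breast cancer lines. A hit is a response shift exceeding 3x replicate standard deviation. The tissue of the other fibroblasts is not given here.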

System: MDAMB436
Experiment: relative JC-1 red fluorescence (viability) vs pre-drug, coculture with fibroblast (fraction); higher = more viable cancer cells
Procedure: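 JC-1 labelled TNBC cells cocultured 1:1 (1,500 cells each) with CellTrace Violet stained primary or stromal fibroblasts in 384-well plates in FluoroBrite medium, treated with one of 42 anticancer drugs at 0.1, 1, 10 or 100 uM. JC-1 red fluorescence (mitochondrial integrity in cancer cells only) was read by plate reader every 8 h for 72 h. Values are normalised to each well's pre-drug value. The stock of one drug was tenfold lower, so its dose labels may be too high.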

Nc1ccn([C@@H]2O[C@H](CO)[C@@H](O)C2(F)F)c(=O)n1 [Gemcitabine]
relative JC-1 red fluorescence
Conditions | 8 h | 16 h | 24 h | 32 h | 40 h | 48 h | 56 h | 64 h | 72 h
0.1 µM, coculture fibroblast: C12385 | 0.8088 | 0.671 | 0.643 | 0.56721 | 0.528 | 0.512 | 0.491 | 0.485 | 0.483
0.1 µM, coculture fibroblast: H6013 | 0.873 | 0.784 | 0.822 | 0.867 | 0.821 | 0.759 | 0.764 | 0.789 | 0.783
0.1 µM, coculture fibroblast: H6019 | 0.7467 | 0.64 | 0.61 | 0.527 | 0.4919 | 0.4779 | 0.4491 | 0.43 | 0.4116
0.1 µM, coculture fibroblast: H6076 | 0.746 | 0.645 | 0.637 | 0.604 | 0.613 | 0.594 | 0.618 | 0.6283 | 0.6308
0.1 µM, coculture fibroblast: H6231 | 0.775 | 0.6773 | 0.646 | 0.58 | 0.5666 | 0.5369 | 0.52775 | 0.518 | 0.509
0.1 µM, coculture fibroblast: HADF | 0.814 | 0.757 | 0.729 | 0.728 | 0.718 | 0.752 | 0.711 | 0.713 | 0.682
0.1 µM, coculture fibroblast: HCFa | 0.767 | 0.663 | 0.636 | 0.616 | 0.592 | 0.611 | 0.548 | 0.541 | 0.489
0.1 µM, coculture fibroblast: HCPF | 0.7673 | 0.682 | 0.6545 | 0.5958 | 0.582 | 0.555 | 0.5315 | 0.512 | 0.5
0.1 µM, coculture fibroblast: HHSteC | 0.886 | 0.815 | 0.821 | 0.821 | 0.827 | 0.857 | 0.818 | 0.801 | 0.747
0.1 µM, coculture fibroblast: HMF | 0.7671 | 0.643 | 0.611 | 0.574 | 0.562 | 0.527 | 0.5456 | 0.517 | 0.5249
0.1 µM, coculture fibroblast: HPFa | 0.93862 | 0.906 | 0.899 | 0.886 | 0.896 | 0.921 | 0.871 | 0.866 | 0.814
0.1 µM, coculture fibroblast: HUF | 0.847 | 0.732 | 0.692 | 0.623 | 0.572 | 0.549 | 0.527 | 0.517 | 0.511
0.1 µM, coculture fibroblast: Hs5 | 0.774 | 0.665 | 0.653 | 0.617 | 0.613 | 0.586 | 0.608 | 0.586 | 0.593
0.1 µM, coculture fibroblast: Hs27A | 0.792 | 0.715 | 0.6829 | 0.6733 | 0.655 | 0.722 | 0.674 | 0.683 | 0.639
0.1 µM, coculture fibroblast: Hs343T | 0.734 | 0.653 | 0.637 | 0.598 | 0.59 | 0.562 | 0.558 | 0.546 | 0.5491
0.1 µM, coculture fibroblast: WS1 | 0.794 | 0.6681 | 0.638 | 0.556 | 0.514 | 0.489 | 0.452 | 0.439 | 0.433
1 µM, coculture fibroblast: C12385 | 0.791 | 0.675 | 0.682 | 0.609 | 0.57 | 0.549 | 0.529 | 0.524 | 0.517
1 µM, coculture fibroblast: H6013 | 0.813 | 0.72 | 0.698 | 0.693 | 0.672 | 0.704 | 0.673 | 0.673 | 0.648
1 µM, coculture fibroblast: H6019 | 0.741 | 0.6546 | 0.6308 | 0.5573 | 0.518 | 0.5101 | 0.4791 | 0.4443 | 0.4251
1 µM, coculture fibroblast: H6076 | 0.778 | 0.653 | 0.657 | 0.619 | 0.589 | 0.566 | 0.57 | 0.56612 | 0.5711
1 µM, coculture fibroblast: H6231 | 0.765 | 0.659 | 0.664 | 0.598 | 0.58 | 0.559 | 0.56 | 0.558 | 0.545
1 µM, coculture fibroblast: HADF | 0.868 | 0.818 | 0.816 | 0.803 | 0.783 | 0.798 | 0.726 | 0.705 | 0.656
1 µM, coculture fibroblast: HCFa | 0.753 | 0.667 | 0.646 | 0.618 | 0.604 | 0.63 | 0.564 | 0.553 | 0.501
1 µM, coculture fibroblast: HCPF | 0.809 | 0.701 | 0.682 | 0.622 | 0.5917 | 0.554 | 0.521 | 0.504 | 0.482
1 µM, coculture fibroblast: HHSteC | 0.815 | 0.745 | 0.719 | 0.675 | 0.668 | 0.67 | 0.624 | 0.602 | 0.563
1 µM, coculture fibroblast: HMF | 0.7556 | 0.63275 | 0.618 | 0.587 | 0.5651 | 0.5409 | 0.543 | 0.5288 | 0.523
1 µM, coculture fibroblast: HPFa | 0.851 | 0.794 | 0.783 | 0.742 | 0.743 | 0.763 | 0.704 | 0.699 | 0.656
1 µM, coculture fibroblast: HUF | 0.838 | 0.744 | 0.74 | 0.672 | 0.63 | 0.611 | 0.594 | 0.583 | 0.585
1 µM, coculture fibroblast: Hs5 | 0.787 | 0.685 | 0.6791 | 0.6339 | 0.6281 | 0.5951 | 0.609 | 0.602 | 0.613
1 µM, coculture fibroblast: Hs27A | 0.781 | 0.722 | 0.707 | 0.709 | 0.712 | 0.792 | 0.733 | 0.743 | 0.701
1 µM, coculture fibroblast: Hs343T | 0.7442 | 0.631 | 0.623 | 0.586 | 0.573 | 0.54 | 0.544 | 0.539 | 0.541
1 µM, coculture fibroblast: WS1 | 0.784 | 0.666 | 0.656 | 0.585 | 0.5463 | 0.529 | 0.517 | 0.5 | 0.498
10 µM, coculture fibroblast: C12385 | 0.8056 | 0.701 | 0.665 | 0.576 | 0.531 | 0.501 | 0.476 | 0.452 | 0.44
10 µM, coculture fibroblast: H6013 | 0.7987 | 0.728 | 0.736 | 0.742 | 0.747 | 0.784 | 0.763 | 0.772 | 0.751
10 µM, coculture fibroblast: H6019 | 0.7361 | 0.671 | 0.623 | 0.537 | 0.493 | 0.468 | 0.445 | 0.431 | 0.429
10 µM, coculture fibroblast: H6076 | 0.68 | 0.559 | 0.54 | 0.4974 | 0.483 | 0.452 | 0.452 | 0.446 | 0.441
10 µM, coculture fibroblast: H6231 | 0.763 | 0.671 | 0.596 | 0.537 | 0.508 | 0.477 | 0.462 | 0.45 | 0.441
10 µM, coculture fibroblast: HADF | 0.813 | 0.717 | 0.706 | 0.6861 | 0.666 | 0.696 | 0.639 | 0.628 | 0.591
10 µM, coculture fibroblast: HCFa | 0.7583 | 0.677 | 0.636 | 0.613 | 0.581 | 0.601 | 0.539 | 0.524 | 0.481
10 µM, coculture fibroblast: HCPF | 0.745 | 0.597 | 0.575 | 0.516 | 0.491 | 0.455 | 0.423 | 0.411 | 0.394
10 µM, coculture fibroblast: HHSteC | 0.855 | 0.795 | 0.801 | 0.79 | 0.798 | 0.831 | 0.782 | 0.779 | 0.741
10 µM, coculture fibroblast: HMF | 0.747 | 0.57 | 0.551 | 0.508 | 0.494 | 0.4654 | 0.4684 | 0.461 | 0.4575
10 µM, coculture fibroblast: HPFa | 0.83711 | 0.765 | 0.752 | 0.732 | 0.738 | 0.773 | 0.718 | 0.721 | 0.674
10 µM, coculture fibroblast: HUF | 0.844 | 0.711 | 0.687 | 0.613 | 0.566 | 0.54 | 0.513 | 0.5 | 0.49
10 µM, coculture fibroblast: Hs5 | 0.842 | 0.69 | 0.697 | 0.652 | 0.629 | 0.592 | 0.606 | 0.565 | 0.569
10 µM, coculture fibroblast: Hs27A | 0.856 | 0.783 | 0.75 | 0.724 | 0.695 | 0.751 | 0.695 | 0.6933 | 0.64115
10 µM, coculture fibroblast: Hs343T | 0.739 | 0.598 | 0.579 | 0.531 | 0.525 | 0.495 | 0.499 | 0.496 | 0.495
10 µM, coculture fibroblast: WS1 | 0.79424 | 0.685 | 0.642 | 0.552 | 0.516 | 0.49 | 0.465 | 0.445 | 0.435
100 µM, coculture fibroblast: C12385 | 0.807 | 0.696 | 0.702 | 0.6286 | 0.593 | 0.572 | 0.555 | 0.539 | 0.5299
100 µM, coculture fibroblast: H6013 | 0.837 | 0.727 | 0.722 | 0.743 | 0.743 | 0.774 | 0.742 | 0.737 | 0.705
100 µM, coculture fibroblast: H6019 | 0.761 | 0.661 | 0.631 | 0.557 | 0.526 | 0.513 | 0.489 | 0.487 | 0.477
100 µM, coculture fibroblast: H6076 | 0.797 | 0.641 | 0.621 | 0.573 | 0.545 | 0.505 | 0.495 | 0.48 | 0.476
100 µM, coculture fibroblast: H6231 | 0.7414 | 0.654 | 0.614 | 0.566 | 0.534 | 0.509 | 0.515 | 0.503 | 0.493
100 µM, coculture fibroblast: HADF | 0.814 | 0.734 | 0.721 | 0.705 | 0.686 | 0.707 | 0.655 | 0.646 | 0.605
100 µM, coculture fibroblast: HCFa | 0.8223 | 0.753 | 0.758 | 0.741 | 0.717 | 0.739 | 0.681 | 0.67 | 0.613
100 µM, coculture fibroblast: HCPF | 0.77 | 0.6925 | 0.609 | 0.575 | 0.544 | 0.501 | 0.482 | 0.466 | 0.45
100 µM, coculture fibroblast: HHSteC | 0.828 | 0.7531 | 0.747 | 0.727 | 0.722 | 0.745 | 0.692 | 0.683 | 0.635
100 µM, coculture fibroblast: HMF | 0.7387 | 0.627 | 0.564 | 0.535 | 0.507 | 0.49 | 0.488 | 0.48 | 0.475
100 µM, coculture fibroblast: HPFa | 0.8586 | 0.78472 | 0.755 | 0.725 | 0.7282 | 0.7521 | 0.6925 | 0.6914 | 0.649
100 µM, coculture fibroblast: HUF | 0.828 | 0.7168 | 0.668 | 0.59097 | 0.5413 | 0.506 | 0.48 | 0.46 | 0.451
100 µM, coculture fibroblast: Hs5 | 0.7998 | 0.672 | 0.656 | 0.602 | 0.582 | 0.547 | 0.553 | 0.529 | 0.522
100 µM, coculture fibroblast: Hs27A | 0.794 | 0.728 | 0.7 | 0.693 | 0.688 | 0.728 | 0.688 | 0.69 | 0.639
100 µM, coculture fibroblast: Hs343T | 0.7592 | 0.627 | 0.5797 | 0.538 | 0.515 | 0.4874 | 0.4758 | 0.4602 | 0.4621
100 µM, coculture fibroblast: WS1 | 0.7981 | 0.664 | 0.647 | 0.57 | 0.526 | 0.508 | 0.481 | 0.458 | 0.445
